Reference: publication PMC10163288
Some of the results follow.

B1: il10ra_site1_normal_mot_HHH_b2_07245_000000008_0001_1_20_H_._HHH_b1_04343_af2_0001_0000300016_0000001_0 (protein)
chain: SSSDREVIHRALEVAREALRLAFRLSDRETLEELWKLVKEIAEKGDPELLEELEELLEELRSSSS
B2: il10ra_site1_normal_mot_HHH_b2_03038_000000109_0001_1_20_H_._HHH_b2_06173_0001_0000600025_0000002_0 (protein)
chain: SSSSEEAYEISRKANEEAVELEEEGDPEKAEEVVEEALERVERLNNFSAFFALEHLLRLIRSSSS
B3: il10ra_site1_normal_mot_HHH_b1_03859_af2_000000004_0001_44_57_H_._HHH_b2_05934_af2_0001_0000200016_0000001_0_af2pred_dldesign_0_af2pred (protein)
chain: SSSSSSPKAAAESALAATEYLKKLNDKENFEKAYNYAVALAKALGDEETLKKLEELKAELSSSSS
B4: il10ra_site1_normal_mot_8756ee2cf497b5429c717dfc0c0bcfd6_0001_000000186_0001_1_13_H_._HHH_b1_04220_0001_0000100017_0000001_0 (protein)
chain: SSSSDEEVERIIELIREIAELEREGDDEEARELLEEAKRLAEEINNDVLLWQIEYLARQVESSSS
B5: il10ra_site1_normal_mot_HHH_b2_03764_000000138_0001_1_20_H_._HHH_b2_04981_0001_0000100005_0000002_0 (protein)
chain: SSSSDEEFEEVYRLLERASELDQEGDKEKAEELVEEAIELAREGGNEVLTWSAEYLLRMIRSSSS
B6: il10ra_site1_sap_18_mot_HHH_b1_01975_000000257_0001_1_17_H_._HHH_b1_07669_af2_0001_0000400016_0000002_0_0001 (protein)
chain: SSSSSAVERSLKHMLKAAKELLERGDPEAAEIALHFAAALAEATNDHELLEEIRELLEEVTSSSS
B7: il10ra_site1_sap_18_mot_HHH_b2_00033_000000036_0001_41_54_H_._HHH_b1_02211_0001_0000500019_0000001_0_0001 (protein)
chain: SSSSSEEKEELEELLERIEEAAREGDEELVVRLTLEASRLALRSGDQELLREIWELFRRLLSSSS
B8: il10ra_site1_normal_mot_HHH_b2_02337_000000026_0001_38_52_H_._HHH_b2_00311_0001_0000300022_0000001_0 (protein)
chain: SSSSSSDLEELLEELEQLLEEGDEERFLQVAQEIVRHAIRNNDPEVLRAVWELVQRLASSSSSSS
B9: il10ra_site1_normal_mot_HHH_b1_04940_000000219_0001_1_18_H_._HHH_b2_04099_0001_0000100003_0000002_0_af2pred_0001 (protein)
chain: SSSSSSSEEHVRRLLEAAKSLEDPELVELALRLARQLAERLNDDELQRLVEEVEEELKSSSSSSS
B10: il10ra_site1_sap_16_mot_1cde5897893f3d1588f92be3b001cdf2_0001_af2_000000130_0001_54_65_H_._HHH_b2_02704_0001_0000100006_0000001_0_0001 (protein)
chain: SSSSDEDEERVEELLEEAKELAEEGDPEEASQVLLEALKIAWESNNPELLQLVFEVVKRLGSSSS

molecular target: il10ra, Q13651; assay: yeast display titration

Apparent Kd, inactive:
B1 > 998 nM, B2 no binding seen, B3 no binding seen, B4 no binding seen, B5 no binding seen, B6 no binding seen, B7 no binding seen, B8 no binding seen, B9 no binding seen, B10 no binding seen
